Data: patent US20030224349A1, “Rapid assay to assess the potential for glucocorticoid analogs to promote the differentiation of human osteoblasts and predict bone safety” (Pfizer Inc., priority 2002, published 2003)
At least one compound was matched to its structure with a doubt left.

Columns and labels:
[1] = test system: primary human osteoblasts; assay: alkaline phosphatase assay in primary human osteoblasts; format: cell-based; details: 13 days of treatment
[2] = test system: primary human osteoblasts; assay: nodule assay (Von Kossa staining) in primary human osteoblasts; format: cell-based; details: 28 days of treatment

## C[C@@H]1C[C@H]2[C@@H]3CCC4=CC(=O)C=C[C@]4(C)[C@@]3(F)[C@@H](O)C[C@]2(C)[C@@]1(O)C(=O)CO [dexamethasone]
[1]; 30 nM
  alkaline phosphatase expression at lowest concentration: maximum alkaline phosphatase expression
[1]
  induction of alkaline phosphatase production/activity (in words): stimulated
[2]
  nodule formation / mineral deposition (Von Kossa staining, in words): dose-dependant nodule formation
